PubChem BioAssay AID743121 – NCATS | 2013
Purpose: 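Knock-downs that sensitise breast cancer cells to camptothecin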 (primary screen). Cell system: MDA-MB-231 cells, a human breast cancer line. Reagents: single siRNA against human genes, 20 nM siRNA (0.8 pmol per well). Timing: 120 h (drug added 48 h after transfection, read 72 h later). Treatment: camptothecin 20 nM (about EC30) for 72 h; vehicle 0.1% DMSO in parallel plates. Detection: 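CellTiter-Glo ATP signal, scaled to control siRNA as percent viability; sensitisation given as log2 of untreated divided by camptothecin-treated viability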. Scale: log2 vehicle/camptothecin viability: higher = stronger sensitisation to camptothecin; viability with camptothecin and viability without drug: higher = more viable cells. Active means: 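Active genes have an RSA gene-level p-value below 0.001, computed from the ratios of their separate siRNAs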.
Here is one part, drawn at random, of about 26,000 reagents. In the full data, 167 (0.63%) were called active. 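Calls are per gene from RSA p-values that are not deposited; an individual active-marked siRNA can sensitise only weakly.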 Reagents against one gene are numbered here. Reagent sequences are not shown.

target | reagent no. | log2 vehicle/camptothecin viability | viability with camptothecin (% of control) | viability without drug (% of control) | activity call
MGMT | 1 | 0.0807 | 82.3 | 87.1 | inactive
MGMT | 2 | 0.2 | 81.8 | 94 | inactive
MGMT | 3 | 0.0637 | 95.9 | 100 | inactive
MGMT | 4 | -0.652 | 95.9 | 61 | inactive
BARD1 | 1 | -0.0725 | 68 | 64.7 | inactive
BARD1 | 2 | -0.108 | 72.9 | 67.6 | inactive
BARD1 | 3 | 0.842 | 50.9 | 91.3 | inactive
SPSB1 | 1 | 0.127 | 39.5 | 43.2 | inactive
SPSB1 | 2 | -0.579 | 105 | 70.6 | inactive
SPSB1 | 3 | 0.346 | 58.8 | 74.8 | inactive
SPSB1 | 4 | -0.439 | 58.8 | 43.4 | inactive
NRIP1 | 1 | -0.413 | 90 | 67.6 | inactive
NRIP1 | 2 | -0.17 | 114 | 102 | inactive
NRIP1 | 3 | 0.127 | 83.5 | 91.1 | inactive
NRIP1 | 4 | -0.103 | 105 | 98 | inactive
SIGLEC6 | 1 | -0.34 | 112 | 88.2 | inactive
SIGLEC6 | 2 | 0.0238 | 60.9 | 61.9 | inactive
SIGLEC6 | 3 | -0.361 | 81.1 | 63.2 | inactive
SIGLEC6 | 4 | 0.579 | 38.2 | 57 | inactive
ITLN2 | 1 | -0.19 | 62.4 | 54.7 | inactive
ITLN2 | 2 | 0.0528 | 72.5 | 75.2 | inactive
ITLN2 | 3 | -0.192 | 107 | 93.7 | inactive
ITLN2 | 4 | -0.323 | 91.2 | 72.9 | inactive

The list goes on, starting with the last 5 of the part before.
target | reagent no. | log2 vehicle/camptothecin viability | viability with camptothecin (% of control) | viability without drug (% of control) | activity call
SIGLEC6 | 4 | 0.579 | 38.2 | 57 | inactive
ITLN2 | 1 | -0.19 | 62.4 | 54.7 | inactive
ITLN2 | 2 | 0.0528 | 72.5 | 75.2 | inactive
ITLN2 | 3 | -0.192 | 107 | 93.7 | inactive
ITLN2 | 4 | -0.323 | 91.2 | 72.9 | inactive
RABEPK | 1 | -0.0637 | 92.2 | 88.2 | inactive
RABEPK | 2 | -0.593 | 92.2 | 61.1 | inactive
RABEPK | 3 | -0.468 | 107 | 77.4 | inactive
RABEPK | 4 | 0.407 | 40.4 | 53.6 | inactive
TAPBPL | 1 | -0.11 | 89.4 | 82.9 | inactive
TAPBPL | 2 | 1.11 | 41.1 | 88.9 | inactive
TAPBPL | 3 | -0.24 | 46.7 | 39.6 | inactive
TAPBPL | 4 | -0.0511 | 57.6 | 55.6 | inactive
NRP2 | 1 | -0.0549 | 59.5 | 57.3 | inactive
NRP2 | 2 | 0.486 | 40.1 | 56.1 | inactive
NRP2 | 3 | -0.0648 | 80.6 | 77 | inactive
MRPS12 | 1 | -0.308 | 56.5 | 45.7 | inactive
MRPS12 | 2 | -0.355 | 60.5 | 47.3 | inactive
MRPS12 | 3 | 0.588 | 67.1 | 101 | inactive
MRPS12 | 4 | -0.149 | 68.3 | 61.6 | inactive
LOXL4 | 1 | -0.738 | 65.7 | 39.4 | inactive
LOXL4 | 2 | 0.121 | 24.9 | 27.1 | inactive
LOXL4 | 3 | -0.334 | 107 | 84.5 | inactive
LOXL4 | 4 | -0.584 | 49.3 | 32.9 | inactive
SOCS3 | 1 | -0.407 | 55.5 | 41.9 | inactive
SOCS3 | 2 | -0.168 | 87.4 | 77.8 | inactive
SOCS3 | 3 | -0.292 | 73.2 | 59.8 | inactive
SOCS3 | 4 | -0.408 | 22.9 | 17.2 | inactive
